# Data published in patent US11612652B2, “Lipids as synthetic vectors to enhance antigen processing and presentation ex-vivo in dendritic cell therapy” (PDS Biotechnology Corporation, priority 2015, dated 2023).
# Some results were stated once for a whole list of compounds, not compound by compound. For at least one compound, name, drawing or mass did not settle the structure.
# Test system: TC-1 tumors
# Assay: Established TC-1 tumor model: tumor microenvironment, tumor volume, ELISPOT
# Type: in vivo, C57 mice
# Conditions: Tregs to HPV16 E7-specific CD8+ T cells
# Method: C57 mice were divided into the following groups of 8 mice per group: R-DOTAP+HPV16 E7 peptide KF18 ([…]) (SEQ ID NO: 4) , GM-CSF+HPV16 E7 peptide KF18, R-DOTAP, GM-C SF, HPV16 E7 peptide KF18, untreated. 1×10^5 TC-1 tumor cells were injected into the flank of the mice on day 0. The various formulations were administered on Days 12 and 19 after tumor implantation. On day 19 4-5 mice per group were sacrificed and a number of evaluations performed to evaluate the immunology of the tumor microenvironment.
# RF9 specific dextramer staining and flow cytometry were utilized to quantify the number of HPV-specific CD8+ T-cells that had infiltrated into the tumor micro-environment. The study quantified the number of CD8+ T cells specific to the mouse epitope RF9. These CD8+ T cells were measured as a percentage of all immune cells (CD45, CD3 and CD8) present in the tumor. Antigen specific T cells infiltrating into the tumor were measured using RF9 specific dextramers by flow cytometry. […] Data represents mean±SEM of 4-5 mice in each group. […]
# The various formulations were evaluated for their impact on the established TC-1 tumors in the same study. […] Tumor volumes were measured using calipers. […]
# In this study, IFN-γ ELISPOT studies were also performed to quantify and understand the “quality” of tumor-specific T-cell generated. […]
structure (smiles),measurement,value
"CCCCCCCC/C=C\CCCCCCCC(=O)OCC(C[N+](C)(C)C)OC(=O)CCCCCCC/C=C\CCCCCCCC (stereo not shown) [R-DOTAP, 1,2-dioleoyl-3-trimethylammonium propane]",Treg/CD8+ T-cell ratio in tumor microenvironment,> 30
